Reference: article PMC9274497
Results are given in words; binding and its absence hold for the method and conditions named. Binding seen in cells or lysates may run through a third protein. Some binding calls cover weakened binding; strength is not graded here.

Protein sequences, listed by entry. Tags and fused reporters are not part of them.
UniProt Q969H0: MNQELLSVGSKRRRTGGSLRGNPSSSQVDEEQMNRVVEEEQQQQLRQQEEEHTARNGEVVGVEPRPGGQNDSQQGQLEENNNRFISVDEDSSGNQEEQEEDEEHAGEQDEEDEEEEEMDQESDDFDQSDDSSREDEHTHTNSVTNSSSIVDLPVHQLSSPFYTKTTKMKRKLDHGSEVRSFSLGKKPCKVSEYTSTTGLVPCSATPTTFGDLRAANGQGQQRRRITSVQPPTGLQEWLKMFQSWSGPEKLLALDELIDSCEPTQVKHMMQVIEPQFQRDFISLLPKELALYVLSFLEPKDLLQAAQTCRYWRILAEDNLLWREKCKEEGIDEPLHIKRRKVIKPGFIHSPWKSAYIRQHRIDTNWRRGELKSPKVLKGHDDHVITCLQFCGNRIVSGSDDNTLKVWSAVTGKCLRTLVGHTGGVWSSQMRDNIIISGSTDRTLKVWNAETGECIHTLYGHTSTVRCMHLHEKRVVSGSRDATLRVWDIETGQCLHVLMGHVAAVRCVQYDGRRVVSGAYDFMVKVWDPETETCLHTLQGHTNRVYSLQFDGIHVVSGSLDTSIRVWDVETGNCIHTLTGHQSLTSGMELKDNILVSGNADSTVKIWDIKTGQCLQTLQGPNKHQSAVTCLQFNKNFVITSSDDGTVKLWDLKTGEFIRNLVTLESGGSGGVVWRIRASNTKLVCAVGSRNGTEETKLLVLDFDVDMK
UniProt P01106: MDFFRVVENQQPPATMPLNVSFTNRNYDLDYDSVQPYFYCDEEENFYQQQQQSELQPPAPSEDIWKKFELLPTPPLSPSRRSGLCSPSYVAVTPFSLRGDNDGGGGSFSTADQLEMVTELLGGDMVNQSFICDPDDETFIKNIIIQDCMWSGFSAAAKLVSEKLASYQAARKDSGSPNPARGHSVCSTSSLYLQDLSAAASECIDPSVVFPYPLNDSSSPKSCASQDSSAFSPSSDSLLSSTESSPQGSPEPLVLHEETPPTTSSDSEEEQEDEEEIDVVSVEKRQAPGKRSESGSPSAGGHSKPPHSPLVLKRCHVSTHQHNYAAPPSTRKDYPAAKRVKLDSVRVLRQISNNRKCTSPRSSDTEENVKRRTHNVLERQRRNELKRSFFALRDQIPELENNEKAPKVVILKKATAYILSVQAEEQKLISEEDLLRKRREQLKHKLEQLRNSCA

Key:
[1] = target: FBXW7 (human (endogenous in LUAD cells)) (UniProt Q969H0); assay: co-IP; cell lysates (IP lysis buffer) with specific antibody or normal IgG (20 ug/mL) at 4 °C overnight; protein A/G magnetic beads 30 min at room temperature; washed five times with 50 mM Tris, 150 mM NaCl, 0.2% Triton X-100, 0.2% Tween, pH 7.5; immunoblot; LUAD cells (A549, SPC-A1)
[2] = target: c-Myc (human (endogenous in A549 and SPC-A1)) (UniProt P01106); assay: as above

B1: CCDC65 (Coiled-coil domain 65) (protein, UniProt Q8IXS2 1-484)
chain: MPKKEKMAKTPLSDEKQLLLFQQKLLAEEEMAKKKERLLSQFLKDKLAKEEHNSALNLNKINTQWRTVLREVKTRELHKDIEILSQTFERVVDCKDNVIKSLAKDLSEAEEQYAHALRSHLHNVDQLLALQRHRLSLLEESYNMELEALTKEFETERKTIIDQHEKEIHYLQDIFMAMEQNYIDSEYESKLEFQSMWNDLKNMNLEEKHFLRLHLENRVEDLWRKFQDVLKNYTDATEDRKAAFETLQVKDEKSSKEIEVQMKKIQKLQDAITISKGKIMIHSRESEDENRYIRNDKELVLVQLRKLKAQRTQARAASQKNLVRLTLESNATLKALRKIVDKGEKILKLAEICRKFETEEEKVLPFYSSVLTPKEQEGIQKNNLEELTEELTKVMVDYIGMENFWKRYNKVKLEQLSLQHRRAQLLDINGKLREMLKQYLDGISVSDEVLSQLNPLFIVNYQSNLLQPLSIRIAHPGDKQHPTT
B1 was tested, and the binding [1] was “binds” and the binding [2] was “binds”.
